In this assay the test system is Candida albicans (ATCC 10231). The assay can be described thus: Antifungal growth inhibition assay. The class given is cell-based. The note with it: ATCC10231, positive control.

In brackets after ≈: the same amount, converted by molar mass.

As a reminder, the MIC is the lowest concentration found to suppress growth. Lower therefore signals inhibition by little substance. For `C[C@@H]1[C@H](O)[C@@H](C)/C=C/C=C/C=C/C=C/C=C/C=C/C=C/[C@H](O[C@@H]2O[C@H](C)[C@@H](O)[C@H](N)[C@@H]2O)C[C@@H]2O[C@](O)(C[C@@H](O)C[C@@H](O)[C@H](O)CC[C@@H](O)C[C@@H](O)CC(=O)O[C@H]1C)C[C@H](O)[C@H]2C(=O)O` [amphotericin-B], the lowest concentration to inhibit growth (MIC) was 8.7 µM (≈ 8.04 µg/mL).
